In the supplement of paper PMC10849652:
Some of the results follow.

The chains behind the UniProt entries cited, without tags or fusion partners. Where a name states a change or a piece, a line headed by the entry shows the natural chain unless it says otherwise.
UniProt O43760: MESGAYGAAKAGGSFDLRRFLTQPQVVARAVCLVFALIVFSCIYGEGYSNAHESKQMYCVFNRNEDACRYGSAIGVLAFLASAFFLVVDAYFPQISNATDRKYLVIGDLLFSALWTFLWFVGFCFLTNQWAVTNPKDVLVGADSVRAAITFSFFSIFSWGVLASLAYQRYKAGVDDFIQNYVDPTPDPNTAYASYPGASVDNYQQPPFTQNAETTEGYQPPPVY
UniProt P53597: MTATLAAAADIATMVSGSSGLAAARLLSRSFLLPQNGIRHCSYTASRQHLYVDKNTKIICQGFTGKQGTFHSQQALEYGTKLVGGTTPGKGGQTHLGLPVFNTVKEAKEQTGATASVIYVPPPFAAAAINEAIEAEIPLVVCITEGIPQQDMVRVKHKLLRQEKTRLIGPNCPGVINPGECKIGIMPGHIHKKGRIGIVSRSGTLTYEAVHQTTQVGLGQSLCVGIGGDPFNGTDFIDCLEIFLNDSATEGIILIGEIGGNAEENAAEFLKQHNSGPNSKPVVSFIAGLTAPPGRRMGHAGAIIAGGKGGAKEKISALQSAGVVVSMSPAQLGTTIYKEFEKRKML
UniProt P56962: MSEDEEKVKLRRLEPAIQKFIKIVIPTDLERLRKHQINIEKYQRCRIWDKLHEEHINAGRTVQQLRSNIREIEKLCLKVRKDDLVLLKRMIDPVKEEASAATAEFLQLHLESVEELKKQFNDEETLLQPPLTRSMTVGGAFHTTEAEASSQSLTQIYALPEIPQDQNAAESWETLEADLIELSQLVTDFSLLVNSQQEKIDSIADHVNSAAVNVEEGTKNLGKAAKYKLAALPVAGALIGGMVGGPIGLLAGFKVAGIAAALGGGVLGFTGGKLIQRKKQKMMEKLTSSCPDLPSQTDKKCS
UniProt Q15208: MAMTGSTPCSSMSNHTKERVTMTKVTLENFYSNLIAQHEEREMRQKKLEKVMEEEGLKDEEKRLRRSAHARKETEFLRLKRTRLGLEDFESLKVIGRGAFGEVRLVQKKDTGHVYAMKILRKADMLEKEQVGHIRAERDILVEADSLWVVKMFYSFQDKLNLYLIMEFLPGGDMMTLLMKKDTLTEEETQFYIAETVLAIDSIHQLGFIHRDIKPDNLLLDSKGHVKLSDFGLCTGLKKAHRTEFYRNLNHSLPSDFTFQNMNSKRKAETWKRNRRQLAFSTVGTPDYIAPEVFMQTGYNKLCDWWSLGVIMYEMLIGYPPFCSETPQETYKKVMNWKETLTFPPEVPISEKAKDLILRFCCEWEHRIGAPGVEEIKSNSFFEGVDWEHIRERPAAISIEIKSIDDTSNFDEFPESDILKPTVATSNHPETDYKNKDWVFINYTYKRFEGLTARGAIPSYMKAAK
UniProt Q8IYB8: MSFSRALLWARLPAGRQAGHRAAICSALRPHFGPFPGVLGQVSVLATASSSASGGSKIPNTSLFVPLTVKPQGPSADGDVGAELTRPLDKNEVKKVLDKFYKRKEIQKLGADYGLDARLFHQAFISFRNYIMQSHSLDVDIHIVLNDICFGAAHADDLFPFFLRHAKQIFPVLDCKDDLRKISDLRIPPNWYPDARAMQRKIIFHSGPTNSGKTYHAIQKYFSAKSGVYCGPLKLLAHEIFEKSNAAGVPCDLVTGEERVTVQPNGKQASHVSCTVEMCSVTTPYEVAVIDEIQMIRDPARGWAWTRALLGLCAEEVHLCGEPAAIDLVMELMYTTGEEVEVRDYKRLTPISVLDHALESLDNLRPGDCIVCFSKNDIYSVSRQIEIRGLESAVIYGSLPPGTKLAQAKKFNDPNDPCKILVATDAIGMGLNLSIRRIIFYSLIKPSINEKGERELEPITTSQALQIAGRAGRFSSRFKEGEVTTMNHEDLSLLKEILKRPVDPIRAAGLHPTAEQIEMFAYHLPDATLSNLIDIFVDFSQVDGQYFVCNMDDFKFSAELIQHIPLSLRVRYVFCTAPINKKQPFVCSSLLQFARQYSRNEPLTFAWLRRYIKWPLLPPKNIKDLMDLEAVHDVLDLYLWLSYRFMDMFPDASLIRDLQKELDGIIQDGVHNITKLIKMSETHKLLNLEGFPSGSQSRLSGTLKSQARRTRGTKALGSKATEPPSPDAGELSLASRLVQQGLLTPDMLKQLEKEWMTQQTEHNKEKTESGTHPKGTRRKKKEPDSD
UniProt Q16514: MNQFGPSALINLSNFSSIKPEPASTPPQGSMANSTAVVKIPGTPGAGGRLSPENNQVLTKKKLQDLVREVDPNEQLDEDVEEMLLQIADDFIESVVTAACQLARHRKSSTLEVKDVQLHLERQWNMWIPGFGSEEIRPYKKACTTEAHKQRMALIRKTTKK
UniProt Q92797: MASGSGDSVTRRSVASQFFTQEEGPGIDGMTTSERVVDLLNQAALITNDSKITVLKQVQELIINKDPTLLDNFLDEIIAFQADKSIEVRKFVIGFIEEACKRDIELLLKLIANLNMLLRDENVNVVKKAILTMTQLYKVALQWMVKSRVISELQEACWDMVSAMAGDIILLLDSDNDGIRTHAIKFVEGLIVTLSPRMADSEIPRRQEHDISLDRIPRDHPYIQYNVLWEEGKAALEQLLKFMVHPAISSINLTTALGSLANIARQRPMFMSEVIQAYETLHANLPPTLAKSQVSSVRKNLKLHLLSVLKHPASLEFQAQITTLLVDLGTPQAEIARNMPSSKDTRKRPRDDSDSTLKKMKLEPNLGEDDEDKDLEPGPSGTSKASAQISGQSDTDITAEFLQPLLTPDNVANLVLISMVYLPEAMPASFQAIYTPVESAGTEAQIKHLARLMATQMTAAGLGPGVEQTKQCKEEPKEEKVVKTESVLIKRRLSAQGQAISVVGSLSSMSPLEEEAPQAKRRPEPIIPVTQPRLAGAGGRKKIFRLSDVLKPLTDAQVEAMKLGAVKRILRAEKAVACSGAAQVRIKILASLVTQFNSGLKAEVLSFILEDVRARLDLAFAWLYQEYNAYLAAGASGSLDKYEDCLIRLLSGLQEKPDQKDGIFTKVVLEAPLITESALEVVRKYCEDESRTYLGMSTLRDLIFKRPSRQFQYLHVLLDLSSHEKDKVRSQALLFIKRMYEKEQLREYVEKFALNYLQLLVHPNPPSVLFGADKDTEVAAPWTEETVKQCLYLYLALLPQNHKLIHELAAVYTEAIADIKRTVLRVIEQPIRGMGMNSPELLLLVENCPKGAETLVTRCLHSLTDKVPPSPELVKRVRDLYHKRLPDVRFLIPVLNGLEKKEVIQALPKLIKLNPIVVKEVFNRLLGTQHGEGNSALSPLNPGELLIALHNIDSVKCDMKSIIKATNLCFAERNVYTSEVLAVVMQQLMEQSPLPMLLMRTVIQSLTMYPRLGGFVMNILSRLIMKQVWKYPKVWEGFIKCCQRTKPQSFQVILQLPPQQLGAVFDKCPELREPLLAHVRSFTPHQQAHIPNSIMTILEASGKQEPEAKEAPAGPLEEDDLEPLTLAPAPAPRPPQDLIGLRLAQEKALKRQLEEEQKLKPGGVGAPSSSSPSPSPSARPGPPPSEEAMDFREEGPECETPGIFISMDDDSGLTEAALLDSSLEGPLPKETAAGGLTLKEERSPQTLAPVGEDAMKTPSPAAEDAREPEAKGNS
UniProt P16949: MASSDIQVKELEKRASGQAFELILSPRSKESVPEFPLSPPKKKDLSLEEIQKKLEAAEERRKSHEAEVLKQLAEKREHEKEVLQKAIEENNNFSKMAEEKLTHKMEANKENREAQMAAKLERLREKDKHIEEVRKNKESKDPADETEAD
UniProt P63165, whole entry, looked up: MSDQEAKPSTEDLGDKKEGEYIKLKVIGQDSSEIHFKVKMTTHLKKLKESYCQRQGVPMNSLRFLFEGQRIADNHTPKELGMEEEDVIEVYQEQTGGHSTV
UniProt Q7Z422: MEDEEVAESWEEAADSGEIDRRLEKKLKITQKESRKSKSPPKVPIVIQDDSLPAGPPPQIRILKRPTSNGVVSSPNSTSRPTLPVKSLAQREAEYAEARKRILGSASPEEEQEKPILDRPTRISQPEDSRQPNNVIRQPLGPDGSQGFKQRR
UniProt Q8NBK3: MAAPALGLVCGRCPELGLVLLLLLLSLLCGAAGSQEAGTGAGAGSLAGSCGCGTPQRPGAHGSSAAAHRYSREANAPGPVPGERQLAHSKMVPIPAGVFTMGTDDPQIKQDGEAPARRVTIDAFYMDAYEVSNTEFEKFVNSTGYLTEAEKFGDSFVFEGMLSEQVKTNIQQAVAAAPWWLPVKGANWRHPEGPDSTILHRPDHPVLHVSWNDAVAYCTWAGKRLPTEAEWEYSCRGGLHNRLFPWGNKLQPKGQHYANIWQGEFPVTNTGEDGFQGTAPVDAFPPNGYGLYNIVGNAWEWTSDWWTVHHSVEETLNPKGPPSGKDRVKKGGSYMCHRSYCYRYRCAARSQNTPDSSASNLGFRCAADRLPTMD
UniProt P46977: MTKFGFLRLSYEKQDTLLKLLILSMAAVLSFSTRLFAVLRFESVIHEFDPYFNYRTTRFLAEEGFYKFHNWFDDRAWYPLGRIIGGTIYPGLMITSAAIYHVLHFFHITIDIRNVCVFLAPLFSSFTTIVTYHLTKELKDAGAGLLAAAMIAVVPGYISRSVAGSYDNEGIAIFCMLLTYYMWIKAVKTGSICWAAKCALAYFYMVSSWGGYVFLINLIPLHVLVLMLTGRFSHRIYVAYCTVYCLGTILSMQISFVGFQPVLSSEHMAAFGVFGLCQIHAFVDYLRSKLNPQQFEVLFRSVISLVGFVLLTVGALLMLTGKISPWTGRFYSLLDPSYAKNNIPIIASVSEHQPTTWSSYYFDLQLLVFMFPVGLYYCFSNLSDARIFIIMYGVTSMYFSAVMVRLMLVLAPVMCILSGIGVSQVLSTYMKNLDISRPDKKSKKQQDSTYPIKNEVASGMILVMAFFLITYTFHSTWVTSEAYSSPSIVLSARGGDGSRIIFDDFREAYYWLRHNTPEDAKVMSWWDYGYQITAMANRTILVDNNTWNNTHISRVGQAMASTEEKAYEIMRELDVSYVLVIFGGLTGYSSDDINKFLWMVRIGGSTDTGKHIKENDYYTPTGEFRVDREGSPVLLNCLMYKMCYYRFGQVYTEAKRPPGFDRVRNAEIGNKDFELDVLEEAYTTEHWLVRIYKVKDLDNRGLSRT
UniProt Q8IWZ8: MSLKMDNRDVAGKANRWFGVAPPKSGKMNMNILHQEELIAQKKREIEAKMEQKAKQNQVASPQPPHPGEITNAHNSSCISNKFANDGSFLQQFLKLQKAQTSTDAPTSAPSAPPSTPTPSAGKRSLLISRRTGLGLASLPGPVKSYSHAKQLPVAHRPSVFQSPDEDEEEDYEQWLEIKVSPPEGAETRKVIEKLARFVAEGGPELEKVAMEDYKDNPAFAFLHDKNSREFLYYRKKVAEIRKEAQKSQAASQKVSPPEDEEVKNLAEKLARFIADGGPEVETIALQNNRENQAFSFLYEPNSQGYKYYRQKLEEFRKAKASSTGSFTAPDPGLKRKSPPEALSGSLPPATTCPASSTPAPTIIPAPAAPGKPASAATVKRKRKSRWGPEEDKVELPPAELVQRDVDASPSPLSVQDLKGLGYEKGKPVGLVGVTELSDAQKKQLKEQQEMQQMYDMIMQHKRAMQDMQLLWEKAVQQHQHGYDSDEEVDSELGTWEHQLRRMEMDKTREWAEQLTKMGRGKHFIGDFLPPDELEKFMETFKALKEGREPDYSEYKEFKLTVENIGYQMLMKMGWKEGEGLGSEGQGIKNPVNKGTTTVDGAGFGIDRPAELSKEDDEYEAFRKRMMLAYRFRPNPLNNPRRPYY
UniProt Q8WXE9: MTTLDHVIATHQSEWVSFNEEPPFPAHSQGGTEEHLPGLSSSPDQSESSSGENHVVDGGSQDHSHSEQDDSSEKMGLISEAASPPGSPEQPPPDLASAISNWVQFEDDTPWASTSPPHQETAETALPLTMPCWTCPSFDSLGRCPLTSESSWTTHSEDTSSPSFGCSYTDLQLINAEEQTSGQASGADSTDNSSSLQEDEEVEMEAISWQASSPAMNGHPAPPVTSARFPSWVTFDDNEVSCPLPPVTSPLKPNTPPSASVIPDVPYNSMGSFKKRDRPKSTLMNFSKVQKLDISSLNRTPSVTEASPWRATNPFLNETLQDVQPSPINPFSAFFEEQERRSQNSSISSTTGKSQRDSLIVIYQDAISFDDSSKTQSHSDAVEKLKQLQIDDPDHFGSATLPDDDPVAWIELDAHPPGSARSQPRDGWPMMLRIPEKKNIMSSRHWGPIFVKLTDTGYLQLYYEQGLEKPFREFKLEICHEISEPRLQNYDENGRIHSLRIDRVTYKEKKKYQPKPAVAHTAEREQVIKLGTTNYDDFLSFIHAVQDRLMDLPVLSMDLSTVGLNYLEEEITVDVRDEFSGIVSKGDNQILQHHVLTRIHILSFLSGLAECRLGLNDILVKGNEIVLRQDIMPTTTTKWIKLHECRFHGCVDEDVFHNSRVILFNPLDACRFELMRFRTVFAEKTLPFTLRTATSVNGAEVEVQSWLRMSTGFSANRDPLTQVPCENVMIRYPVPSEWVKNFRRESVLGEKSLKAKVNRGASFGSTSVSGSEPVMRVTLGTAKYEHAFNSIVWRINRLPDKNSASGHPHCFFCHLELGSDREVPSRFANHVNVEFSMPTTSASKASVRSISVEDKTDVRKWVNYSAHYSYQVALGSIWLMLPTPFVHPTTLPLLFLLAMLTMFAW

Assays:
Experiment in all cases: log2 fold change, soluble protein after heating vs DMSO (PISA); higher = thermal stabilisation; K562 lysate, 10 uM; active = over 0.2 and 3.5 SD of the protein, either way, in both replicates (recomputed)
[1] = compound: CCCS(=O)(=O)Nc1ccc(F)c(C(=O)c2c[nH]c3ncc(-c4ccc(Cl)cc4)cc23)c1F [vemurafenib]
Method in brief: (§1)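 Values give the log-two fold change in thermal stability against solvent controls, from duplicates. Crude K562 extract at 1 mg/mL protein, made by dounce homogenisation in PBS pH 7.4 with 1 mM MgCl2, was treated with 10 μM compound for 30 min. After 3 min heating across 48°C-58°C, aliquots were pooled, adjusted to 0.5% NP-40 at 4°C and centrifuged at 21,000xg for 90 min. The supernatant was measured by TMTpro 16plex LC-MS/MS with channel sums equalised.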

[2] = compound: CCCS(=O)(=O)Nc1ccc(F)c(C(=O)c2c[nH]c3ncc(Cl)cc23)c1F
Method in brief: as §1

[3] = compound: CCN(CCCOc1ccc2c(Nc3cc(CC(=O)Nc4cccc(F)c4)[nH]n3)ncnc2c1)CCOP(=O)(O)O [barasertib]
Method in brief: as §1

[4] = compound: CC[C@@H]1C(=O)N(C)c2cnc(Nc3ccc(C(=O)NC4CCN(C)CC4)cc3OC)nc2N1C1CCCC1
Method in brief: as §1

[5] = compound: CC[C@@H]1C(=O)N(C)c2cnc(Nc3ccc(C(=O)N[C@H]4CC[C@H](N5CCN(CC6CC6)CC5)CC4)cc3OC)nc2N1C(C)C [volasertib]
Method in brief: as §1

[6] = compound: CCn1c(C(=O)N(C2CC2)C2CC2)cc2c3c(ncn3C)c(Nc3cc(C)n(C)n3)nc21
Method in brief: as §1

[7] = compound: CCn1cc(-c2ccnc3[nH]c(-c4cccc(CN(C)C)c4)cc23)c(-c2ccc(NC(=O)N(C)C)cc2)n1
Method in brief: as §1

[8] = compound: CN1CCC(CNc2ccc3ncc(-c4cccc(OC(F)(F)F)c4)n3n2)CC1
Method in brief: as §1

[9] = compound: CN1CCN(CCOc2cc(OC3CCOCC3)c3c(Nc4c(Cl)ccc5c4OCO5)ncnc3c2)CC1 [saracatinib]
Method in brief: as §1

[10] = compound: CN1CCN(c2nc(C3=C(c4c[nH]c5ccccc45)C(=O)NC3=O)c3ccccc3n2)CC1 [sotrastaurin]
Method in brief: as §1

| Target | log2 fold change [1] | log2 fold change [2] | log2 fold change [3] | log2 fold change [4] | log2 fold change [5] | log2 fold change [6] | log2 fold change [7] | log2 fold change [8] | log2 fold change [9] | log2 fold change [10] |
| --- | --- | --- | --- | --- | --- | --- | --- | --- | --- | --- |
| SYNGR2 (UniProt O43760) | inactive: -0.053 | inactive: 0.003 | inactive: 0.067 | inactive: -0.004 | inactive: 0.034 | inactive: -0.019 | inactive: -0.188 | inactive: 0.016 | inactive: 0.045 | inactive: 0.014 |
| SYNRG (UniProt Q9UMZ2) | inactive: -0.006 | inactive: 0.022 | inactive: 0.015 | inactive: 0.037 | inactive: 0 | inactive: -0.019 | inactive: 0.017 | inactive: -0.1 | inactive: 0.013 | inactive: -0.009 |
| TACO1 (UniProt Q9BSH4) | inactive: -0.004 | inactive: -0.018 | inactive: 0.063 | inactive: 0.055 | inactive: 0.068 | inactive: 0.008 | inactive: -0.143 | inactive: 0.018 | inactive: 0.019 | inactive: -0.011 |
| SUPT5H (UniProt O00267) | inactive: 0.032 | inactive: 0.012 | inactive: 0.007 | inactive: -0.006 | inactive: 0.002 | inactive: 0.011 | inactive: 0.09 | inactive: -0.022 | inactive: -0.015 | inactive: -0.006 |
| SUCLG1 (UniProt P53597) | inactive: 0.012 | inactive: 0.001 | inactive: 0.019 | inactive: -0.056 | inactive: -0.047 | inactive: 0.034 | inactive: 0.03 | inactive: -0.018 | inactive: -0.044 | inactive: -0.018 |
| STX17 (UniProt P56962) | inactive: 0.095 | inactive: -0.015 | inactive: 0.014 | inactive: 0.007 | inactive: -0.038 | inactive: -0.092 | inactive: -0.033 | inactive: -0.102 | inactive: -0.009 | inactive: -0.006 |
| STK38 (UniProt Q15208) | inactive: -0.046 | inactive: -0.012 | inactive: 0.031 | inactive: -0.112 | inactive: -0.092 | inactive: 0.019 | inactive: 0.122 | inactive: 0.002 | inactive: -0.019 | inactive: 0.02 |
| SUGP2 (UniProt Q8IX01) | inactive: 0.094 | inactive: 0.004 | inactive: 0.257 | inactive: -0.021 | inactive: -0.034 | inactive: 0.005 | inactive: 0.012 | inactive: -0.013 | inactive: 0.055 | inactive: 0.036 |
| STX10 (UniProt O60499) | inactive: 0.128 | inactive: 0.008 | inactive: 0.01 | inactive: 0.021 | inactive: -0.033 | inactive: -0.013 | inactive: 0.122 | inactive: -0.04 | inactive: -0.028 | inactive: 0.016 |
| SUPV3L1 (UniProt Q8IYB8) | inactive: 0.016 | inactive: 0.032 | inactive: -0.011 | inactive: 0.019 | inactive: -0.002 | inactive: 0 | inactive: -0.006 | inactive: -0.01 | inactive: -0.002 | inactive: 0.014 |
| TAF12 (UniProt Q16514) | inactive: -0.017 | inactive: -0.001 | inactive: -0.086 | inactive: 0.025 | inactive: 0.017 | inactive: 0.008 | inactive: 0.06 | inactive: -0.003 | inactive: -0.019 | inactive: -0.001 |
| SYMPK (UniProt Q92797) | inactive: -0.024 | inactive: 0.01 | inactive: 0.064 | inactive: -0.038 | inactive: -0.034 | inactive: 0.027 | inactive: 0.003 | inactive: -0.058 | inactive: 0.001 | inactive: -0.006 |
| SYNJ1 (UniProt O43426) | inactive: -0.035 | inactive: -0.017 | inactive: -0.04 | inactive: 0.054 | inactive: -0.03 | inactive: 0.003 | inactive: -0.032 | inactive: 0.001 | inactive: 0.029 | inactive: -0.003 |
| STMN1 (UniProt P16949) | inactive: -0.004 | inactive: -0.019 | inactive: 0.005 | inactive: 0.049 | inactive: 0.051 | inactive: -0.031 | inactive: 0.011 | inactive: -0.029 | inactive: -0.016 | inactive: 0.02 |
| STK4 (UniProt Q13043) | inactive: 0.058 | inactive: 0.047 | inactive: 0.029 | inactive: 0.002 | inactive: -0.046 | inactive: 0.023 | inactive: -0.019 | inactive: 0.168 | inactive: 0.029 | inactive: 0.199 |
| STK24 (UniProt B4DR80) | inactive: 0.009 | inactive: 0.005 | inactive: 0 | inactive: -0.03 | inactive: -0.017 | inactive: 0.005 | inactive: 0.02 | inactive: -0.007 | inactive: 0.005 | inactive: 0.046 |
| SUMO1 (UniProt P63165) | inactive: 0.048 | inactive: -0.031 | inactive: 0.094 | inactive: -0.021 | inactive: -0.003 | inactive: 0.004 | inactive: -0.093 | inactive: 0.031 | inactive: 0.018 | inactive: 0.057 |
| SYAP1 (UniProt Q96A49) | inactive: -0.008 | inactive: 0.004 | inactive: 0.062 | inactive: 0.141 | inactive: 0.023 | inactive: 0.04 | inactive: 0.101 | inactive: -0.145 | inactive: 0.032 | inactive: -0.058 |
| TADA1 (UniProt Q96BN2) | inactive: 0.06 | inactive: 0.076 | inactive: -0.008 | inactive: 0.04 | inactive: 0.003 | inactive: 0.051 | inactive: -0.075 | inactive: -0.012 | inactive: 0.105 | inactive: -0.051 |
| STK11IP (UniProt Q8N1F8) | inactive: -0.016 | inactive: 0.018 | inactive: -0.04 | inactive: 0.075 | inactive: -0.067 | inactive: 0.002 | inactive: 0.015 | inactive: -0.072 | inactive: 0.012 | inactive: 0.016 |
| SYNE2 isoform 2 (UniProt Q8WXH0) | inactive: 0.009 | inactive: 0.005 | inactive: 0.085 | inactive: 0.004 | inactive: 0.065 | inactive: -0.042 | active: -0.966 | inactive: 0.371 | inactive: -0.054 | inactive: 0.035 |
| SZRD1 (UniProt Q7Z422) | inactive: 0.037 | inactive: 0.012 | inactive: -0.039 | inactive: 0.051 | inactive: 0.013 | inactive: -0.061 | inactive: 0.004 | inactive: 0.103 | inactive: 0.025 | inactive: 0.057 |
| SUMF1 (UniProt Q8NBK3) | inactive: 0.215 | inactive: 0.055 | inactive: 0.005 | inactive: 0.112 | inactive: 0.037 | inactive: -0.036 | inactive: -0.013 | inactive: 0.068 | inactive: -0.001 | inactive: -0.071 |
| STRN (UniProt O43815) | inactive: -0.004 | inactive: 0.012 | inactive: -0.018 | inactive: -0.002 | inactive: -0.004 | inactive: 0.002 | inactive: 0.004 | inactive: -0.017 | inactive: -0.015 | inactive: 0.021 |
| STT3A (UniProt P46977) | inactive: -0.08 | inactive: 0.015 | inactive: 0.022 | inactive: -0.031 | inactive: 0.028 | inactive: 0.024 | inactive: -0.052 | inactive: 0.017 | inactive: -0.004 | inactive: 0.019 |
| SUGP1 (UniProt Q8IWZ8) | inactive: -0.029 | inactive: 0.001 | inactive: -0.001 | inactive: 0.051 | inactive: -0.007 | inactive: 0.014 | inactive: -0.014 | inactive: 0.04 | inactive: 0.012 | inactive: 0.028 |
| SYNE1 (UniProt Q8NF91) | inactive: 0.235 | inactive: -0.062 | inactive: 0.013 | inactive: 0.248 | inactive: 0.033 | inactive: -0.3 | inactive: -0.065 | inactive: -0.137 | inactive: 0.035 | inactive: -0.045 |
| STK11 (UniProt Q15831) | inactive: 0.029 | inactive: 0.006 | inactive: 0.002 | inactive: 0.078 | inactive: 0.015 | inactive: -0.046 | inactive: -0.011 | inactive: 0.034 | inactive: -0.084 | inactive: -0.021 |
| SYF2 (UniProt O95926) | inactive: -0.012 | inactive: -0.042 | inactive: -0.039 | inactive: 0.096 | inactive: 0.038 | inactive: -0.044 | inactive: -0.043 | inactive: 0.028 | inactive: 0.015 | inactive: -0.008 |
| STON2 isoform 3 (UniProt Q8WXE9) | inactive: 0.057 | inactive: -0.157 | inactive: 0.003 | inactive: -0.061 | inactive: -0.115 | inactive: 0.028 | inactive: -0.045 | inactive: 0 | inactive: 0.027 | inactive: 0.079 |

2 records drawn at random from those above:

| Target | log2 fold change [1] | log2 fold change [2] | log2 fold change [3] | log2 fold change [4] | log2 fold change [5] | log2 fold change [6] | log2 fold change [7] | log2 fold change [8] | log2 fold change [9] | log2 fold change [10] |
| --- | --- | --- | --- | --- | --- | --- | --- | --- | --- | --- |
| SUCLG1 (UniProt P53597) | inactive: 0.012 | inactive: 0.001 | inactive: 0.019 | inactive: -0.056 | inactive: -0.047 | inactive: 0.034 | inactive: 0.03 | inactive: -0.018 | inactive: -0.044 | inactive: -0.018 |
| STK4 (UniProt Q13043) | inactive: 0.058 | inactive: 0.047 | inactive: 0.029 | inactive: 0.002 | inactive: -0.046 | inactive: 0.023 | inactive: -0.019 | inactive: 0.168 | inactive: 0.029 | inactive: 0.199 |
